Values from PubChem BioAssay AID1259327 (Drosophila RNAi Screening Center, 2017)

- Aim: 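Data from controls in screens of zinc and manganese toxicity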
- System: Drosophila S2R+ cells
- Reagents: long dsRNA against Drosophila genes
- Duration: 5 days (water added on day 4, read one day later)
- Challenge: water added as vehicle, no metal, one day before read-out
- Measurement: 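Total ATP measured by luciferase light, scaled to plate mean, duplicates averaged, then z-scored across plates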
- Direction: ATP z-score: higher = more total ATP than typical wells; ATP luminescence: higher = more total ATP
- Call rule: 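a hit is any knock-down whose absolute ATP z-score is greater than 1.5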
- Meaning of the calls: active = hit: ATP up or down; inactive = no clear ATP change
In all, the deposit lists about 3,100 reagents; this is a part drawn at random. Over the whole deposit, 378 (12%) are marked active. 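Hits include both directions; z-score sign shows ATP rise or fall; raw luminescence values are not plate-normalised.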 Unmarked entries are inactive. Not given: the amount of reagent.

{"Target gene":"AdoR (GeneID 43583)","DRSC id":"DRSC16556","ATP z-score, duplicate mean":"4.43 (active)","ATP luminescence, replicate 1 (RLU)":8.84e5,"ATP luminescence, replicate 2 (RLU)":7.72e5}
{"Target gene":"AdoR (GeneID 43583)","DRSC id":"DRSC28071","ATP z-score, duplicate mean":0.998,"ATP luminescence, replicate 1 (RLU)":9.98e5,"ATP luminescence, replicate 2 (RLU)":1.11e6}
{"Target gene":"Syngr (GeneID 36533)","DRSC id":"DRSC06003","ATP z-score, duplicate mean":"3.7 (active)","ATP luminescence, replicate 1 (RLU)":1.08e6,"ATP luminescence, replicate 2 (RLU)":8.29e5}
{"Target gene":"Syngr (GeneID 36533)","DRSC id":"DRSC39806","ATP z-score, duplicate mean":-1.11,"ATP luminescence, replicate 1 (RLU)":3.84e5,"ATP luminescence, replicate 2 (RLU)":4.19e5}
{"Target gene":"Cad96Cb (GeneID 43033)","DRSC id":"DRSC14243","ATP z-score, duplicate mean":1.25,"ATP luminescence, replicate 1 (RLU)":3.07e5,"ATP luminescence, replicate 2 (RLU)":1.02e6}
{"Target gene":"Cad96Cb (GeneID 43033)","DRSC id":"DRSC14665","ATP z-score, duplicate mean":0.814,"ATP luminescence, replicate 1 (RLU)":9.02e5,"ATP luminescence, replicate 2 (RLU)":7.55e5}
{"Target gene":"Cad96Cb (GeneID 43033)","DRSC id":"DRSC28720","ATP z-score, duplicate mean":0.281,"ATP luminescence, replicate 1 (RLU)":9.37e5,"ATP luminescence, replicate 2 (RLU)":7.83e5}
{"Target gene":"CG31998 (GeneID 43774)","DRSC id":"DRSC17137","ATP z-score, duplicate mean":-0.248,"ATP luminescence, replicate 1 (RLU)":7.44e5,"ATP luminescence, replicate 2 (RLU)":6.18e5}
{"Target gene":"CG31998 (GeneID 43774)","DRSC id":"DRSC17138","ATP z-score, duplicate mean":"3.21 (active)","ATP luminescence, replicate 1 (RLU)":6.91e5,"ATP luminescence, replicate 2 (RLU)":1.04e6}

Records above whose target name starts with A or a (2):
{"Target gene":"AdoR (GeneID 43583)","DRSC id":"DRSC16556","ATP z-score, duplicate mean":"4.43 (active)","ATP luminescence, replicate 1 (RLU)":8.84e5,"ATP luminescence, replicate 2 (RLU)":7.72e5}
{"Target gene":"AdoR (GeneID 43583)","DRSC id":"DRSC28071","ATP z-score, duplicate mean":0.998,"ATP luminescence, replicate 1 (RLU)":9.98e5,"ATP luminescence, replicate 2 (RLU)":1.11e6}

Continued.
{"Target gene":"Tom20 (GeneID 40189)","DRSC id":"DRSC10899","ATP z-score, duplicate mean":0.433,"ATP luminescence, replicate 1 (RLU)":7.57e5,"ATP luminescence, replicate 2 (RLU)":7.99e5}
{"Target gene":"CG13995 (GeneID 33851)","DRSC id":"DRSC22767","ATP z-score, duplicate mean":0.24,"ATP luminescence, replicate 1 (RLU)":5.84e5,"ATP luminescence, replicate 2 (RLU)":6.16e5}
{"Target gene":"CG13995 (GeneID 33851)","DRSC id":"DRSC28023","ATP z-score, duplicate mean":-0.986,"ATP luminescence, replicate 1 (RLU)":9.59e5,"ATP luminescence, replicate 2 (RLU)":9.29e5}
{"Target gene":"VhaM9.7-d (GeneID 42041)","DRSC id":"DRSC15028","ATP z-score, duplicate mean":-0.0892,"ATP luminescence, replicate 1 (RLU)":2.86e5,"ATP luminescence, replicate 2 (RLU)":7.75e5}
{"Target gene":"CG32079 (GeneID 39230)","DRSC id":"DRSC22636","ATP z-score, duplicate mean":1.02,"ATP luminescence, replicate 1 (RLU)":6.99e5,"ATP luminescence, replicate 2 (RLU)":6.32e5}
{"Target gene":"CG32079 (GeneID 39230)","DRSC id":"DRSC39426","ATP z-score, duplicate mean":-0.819,"ATP luminescence, replicate 1 (RLU)":3.86e5,"ATP luminescence, replicate 2 (RLU)":4.10e5}
{"Target gene":"robo1 (GeneID 37603)","DRSC id":"DRSC04712","ATP z-score, duplicate mean":-0.267,"ATP luminescence, replicate 1 (RLU)":7.07e5,"ATP luminescence, replicate 2 (RLU)":6.89e5}
{"Target gene":"tadr (GeneID 35370)","DRSC id":"DRSC03177","ATP z-score, duplicate mean":0.338,"ATP luminescence, replicate 1 (RLU)":7.59e5,"ATP luminescence, replicate 2 (RLU)":7.75e5}
{"Target gene":"tadr (GeneID 35370)","DRSC id":"DRSC39590","ATP z-score, duplicate mean":0.682,"ATP luminescence, replicate 1 (RLU)":4.73e5,"ATP luminescence, replicate 2 (RLU)":5.51e5}
{"Target gene":"shakB (GeneID 33062)","DRSC id":"DRSC20585","ATP z-score, duplicate mean":-0.675,"ATP luminescence, replicate 1 (RLU)":6.66e5,"ATP luminescence, replicate 2 (RLU)":6.73e5}
{"Target gene":"shakB (GeneID 33062)","DRSC id":"DRSC22817","ATP z-score, duplicate mean":-1.18,"ATP luminescence, replicate 1 (RLU)":5.27e5,"ATP luminescence, replicate 2 (RLU)":4.31e5}
{"Target gene":"shakB (GeneID 33062)","DRSC id":"DRSC26262","ATP z-score, duplicate mean":0.413,"ATP luminescence, replicate 1 (RLU)":9.16e5,"ATP luminescence, replicate 2 (RLU)":8.87e5}
{"Target gene":"Chs2 (GeneID 40442)","DRSC id":"DRSC11830","ATP z-score, duplicate mean":-0.0773,"ATP luminescence, replicate 1 (RLU)":9.33e5,"ATP luminescence, replicate 2 (RLU)":8.40e5}
{"Target gene":"Chs2 (GeneID 40442)","DRSC id":"DRSC39425","ATP z-score, duplicate mean":-0.678,"ATP luminescence, replicate 1 (RLU)":3.78e5,"ATP luminescence, replicate 2 (RLU)":4.37e5}
{"Target gene":"lili (GeneID 42956)","DRSC id":"DRSC14143","ATP z-score, duplicate mean":-0.268,"ATP luminescence, replicate 1 (RLU)":6.65e5,"ATP luminescence, replicate 2 (RLU)":6.90e5}
{"Target gene":"lili (GeneID 42956)","DRSC id":"DRSC29667","ATP z-score, duplicate mean":0.815,"ATP luminescence, replicate 1 (RLU)":1.00e6,"ATP luminescence, replicate 2 (RLU)":8.48e5}
